Some entries share one result that the patent states for a list of compounds.
Biological target: rat cerebral cortex membranes ([35S]-TBPS binding)
Experiment: [35S]-TBPS binding to rat cerebral cortex membranes in vitro
Conditions: 2 nM [35S]-TBPS, 5x10^-6 M GABA
Protocol: 2. [^35 S]-TBPS binding to rat cerebral cortex membranes in vitro
Pooled rat cerebral cortices are homogenised in 20 volumes of 0.32M sucrose and centrifuged at 1000 g for 20 minutes (4° C.). The supernatant is removed and recentrifuged at 50,000 g (4° C., 20 mins). The P2 pellet is then suspended in 20 volumes of Tris citrate buffer (pH 7.1) and centrifuged at 50,000 g (4° C., 20 mins). This washing step is repeated three times and the pellet finally resuspended in 20 volumes of buffer and stored at -70° C. prior to use.
The tissue suspension ([…]) is incubated (25° C., 120 mins) with [^35 S]-TBPS (2 nM) in Tris citrate buffer (pH 7.1) containing 0.2M NaCl and 5×10^-6 M GABA. Non-specific binding is measured in the presence of 10^-4 M picrotoxin. Varying concentrations of test drugs (10^-7, 10^-6, 10^-5 and 10^-4 M final concentration) are added in a volume of […]. The total assay volume is […]. Incubation is stopped by rapid filtration using a Skatron cell harvester and radioactivity measured by liquid scintillation spectrometry. IC50 's are calculated as the concentration of test drug to inhibit 50% of specific binding.

IC50, < 20 µM:
C#CCOC(=O)c1c(C)nc2sc3c(c2c1N)CCC(O)C3 (racemic) [Example 8, (±)-4-Amino-7-hydroxy-2-methyl-5,6,7,8-tetrahydrobenzo[b]thieno[2,3-b]pyridine-3-carboxylic acid, prop-2-ynyl ester]
C#CCCOC(=O)c1c(C)nc2sc3c(c2c1N)CCC(O)C3 (racemic) [Example 9, (±)-4-Amino-7-hydroxy-2-methyl-5,6,7,8-tetrahydrobenzo[b]thieno[2,3-b]pyridine-3-carboxylic acid, but-3-ynyl ester]
C=CCCOC(=O)c1c(C)nc2sc3c(c2c1N)CCC(O)C3 (racemic) [Example 10, (±)-4-Amino-7-hydroxy-2-methyl-5,6,7,8-tetrahydrobenzo[b]thieno[2,3-b]pyridine-3-carboxylic acid, but-3-enyl ester]
CCCOC(=O)c1c(C)nc2sc3c(c2c1N)CCC(O)C3 (racemic) [Example 11, (±)-4-Amino-7-hydroxy-2-methyl-5,6,7,8-tetrahydrobenzo[b]thieno[2,3-b]pyridine-3-carboxylic acid, propyl ester]
Cc1nc2sc3c(c2c(N)c1C(=O)OCC(C)C)CCC(O)C3 (racemic) [Example 12, (±)-4-Amino-7-hydroxy-2-methyl-5,6,7,8-tetrahydrobenzo[b]thieno[2,3-b]pyridine-3-carboxylic acid, (2-methyl) propyl ester]
CCOC(=O)c1c(-c2ccccc2)nc2sc3c(c2c1N)CCC(O)C3 (racemic) [Example 13, (±)-4-Amino-7-hydroxy-2-phenyl-5,6,7,8-tetrahydrobenzo[b]thieno[2,3-b]pyridine-3-carboxylic acid, ethyl ester]
C=CCCCOC(=O)c1c(C)nc2sc3c(c2c1N)CCC(O)C3 (racemic) [Example 14, (±)-4-Amino-7-hydroxy-2-methyl-5,6,7,8-tetrahydrobenzo[b]thieno[2,3-b]pyridine-3-carboxylic acid, pent-4-enyl ester]
Cc1nc2sc3c(c2c(N)c1C(=O)OC1CCCCC1)CCC(O)C3 (racemic) [Example 15, (±)-4-Amino-7-hydroxy-2-methyl-5,6,7,8-tetrahydrobenzo[b]thieno[2,3-b]pyridine-3-carboxylic acid, cyclohexyl ester]
CCOC(=O)c1c(CC)nc2sc3c(c2c1N)CCC(O)C3 (racemic) [Example 16, (±)-4-Amino-2-ethyl-7-hydroxy-5,6,7,8-tetrahydrobenzo[b]thieno[2,3-b]pyridine-3-carboxylic acid, ethyl ester]
Cc1nc2sc3c(c2c(N)c1C(=O)OCCC1CC1)CCC(O)C3 (racemic) [Example 17, (±)-4-Amino-7-hydroxy-2-methyl-5,6,7,8-tetrahydrobenzo[b]thieno[2,3-b]pyridine-3-carboxylic acid, cyclopropylethyl ester]

From patent US5447937A, “CNS active tetrahydrobenzothienopyridines” (SmithKline Beecham p.l.c., priority 1991, dated 1995)
